Among all 310,000 compounds or so, about 17,000 (5.5%) were called active. This list was built around the results that the source calls inconclusive (neither active nor inactive); the mix of calls is not that of the screen. The call rests on the fitted dose curve; in most records, active means well fitted inhibition curve with a large enough effect; inconclusive means small, poorly fitted or top-dose-only effect, or effect the other way; inactive means no such curve, though single readings can be large or run the other way. Potencies beside an inconclusive call are fits to weak or partial responses and may not hold up.
biological target: Nuclear receptor ROR-gamma (Mus musculus) (UniProt P51450); assay: qHTS for inhibitors of ROR gamma transcriptional activity; settings: Drosophila S2 Gal4-RORgamma UAS-luciferase reporter, 20 h; activity change, negative = inhibition: at 53.6 µM (top of the series); further: nearly all actives have a fitted effect of over 60% in size
In short: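 Drosophila S2 cells stably expressing Gal4-DBD/mouse RORγ fusion under metallothionein promoter plus UAS-luciferase; compound 1 h, then 700 uM CuSO4 induction for 20 h at ambient temperature; inhibition read as reduced luminescence.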
On the % scale 0 is the no-effect control and ±100 the full control effect; potency means the concentration at half of the fitted maximal effect.

Sequences of proteins named here, by UniProt entry; tags and fusion partners are left off. A change or cut given only in a name is not applied to a line headed by its entry.
UniProt P51450: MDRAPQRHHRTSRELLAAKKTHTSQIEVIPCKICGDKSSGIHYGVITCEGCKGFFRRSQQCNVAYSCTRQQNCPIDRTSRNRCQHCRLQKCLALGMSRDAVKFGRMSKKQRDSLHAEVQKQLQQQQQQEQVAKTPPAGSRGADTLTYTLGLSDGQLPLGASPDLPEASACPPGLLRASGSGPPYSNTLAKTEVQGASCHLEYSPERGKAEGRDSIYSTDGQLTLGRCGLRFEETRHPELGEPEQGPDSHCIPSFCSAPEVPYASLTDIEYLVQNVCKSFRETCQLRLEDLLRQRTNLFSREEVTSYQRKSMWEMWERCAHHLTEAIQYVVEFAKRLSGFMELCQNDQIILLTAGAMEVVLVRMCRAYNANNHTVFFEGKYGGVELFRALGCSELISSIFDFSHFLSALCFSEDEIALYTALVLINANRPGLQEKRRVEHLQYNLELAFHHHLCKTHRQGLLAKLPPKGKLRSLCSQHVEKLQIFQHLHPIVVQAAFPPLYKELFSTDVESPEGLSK

Potency, inconclusive:
CC(C)N(CCc1ccncc1)C(=S)Nc1cccc(Cl)c1 17.8 µM [inhibitor, single point]
O=C(CSc1ccc(F)cc1)Nc1ccc(N2CCOCC2)c(Cl)c1 35.5 µM [activator, single point]
O=C(COC(=O)C1(c2ccccc2F)CCCC1)N1CCN(C(=O)c2ccco2)CC1 11.2 µM [activator, partial curve]
CCn1cc(CNCc2cn(C)nc2-c2ccc(C3CCCCC3)cc2)cn1 35.5 µM [inhibitor, single point]
Cc1ccc(OCCOc2ccc(Cl)cc2Cl)c([N+](=O)[O-])n1 20 µM [activator, partial curve, poor fit]
Cc1cc(CNC(=O)COc2ccc(F)cc2)c2ccccc2n1 35.5 µM [activator, single point]
COc1ccccc1OCCNC(=O)Nc1ccc(Br)cc1 8.91 µM [activator, partial curve]
COc1cccc(-c2cncnc2NCc2ccccc2)c1 35.5 µM [inhibitor, single point]
NC(=O)c1cccnc1Nc1cccc([N+](=O)[O-])c1 7.08 µM [activator, single point]
CCN(CC)C(=O)n1cnc(-c2ccccc2)c1-c1ccccc1 20 µM [activator, partial curve, poor fit]
CC[C@@]1([C@@H]2O[C@@H]([C@H]3O[C@@](O)(CO)[C@H](C)C[C@@H]3C)C[C@@H]2C)CC[C@@H]([C@]2(C)CCC3(C[C@H](O)[C@@H](C)[C@@H]([C@@H](C)[C@@H](OC)[C@H](C)C(=O)O)O3)O2)O1 (stereo partly drawn) 0.251 µM [activator, full curve, poor fit]
O=C(Nc1nncs1)c1c(F)c(F)c(F)c(F)c1F 28.2 µM [inhibitor, single point]
CCCCCCNC(=O)Cc1ccc(Br)cc1 2.82 µM [activator, full curve]
S=C(c1ccc[nH]1)N1CCOCC1 35.5 µM [inhibitor, single point]
Cc1ccc(NNC(=O)C(=O)N2CCCCC2)cc1 35.5 µM [activator, single point]
Cc1c(N=N/C(C(=O)Nc2ccccc2)=C(/O)c2ccccc2)c(=O)n(-c2ccccc2)n1C 22.4 µM [inhibitor, single point]
c1ccc(-c2nc(-c3ccco3)n3ccccc23)cc1 35.5 µM [inhibitor, single point]
CCOC(=O)CNC(=O)c1cc(C)oc1C 35.5 µM [inhibitor, single point]
COc1ccc(CC(=O)Nc2cccc(-c3csc(C)n3)c2)cc1 15.8 µM [activator, partial curve]
O=S(=O)(c1ccc2ccccc2c1)N(CC(O)COCc1ccco1)c1ccccc1 (stereo not drawn) 22.4 µM [activator, single point]
COC(=O)c1sc(NC(=O)c2ccc(C)o2)nc1C 22.4 µM [inhibitor, single point]
COc1ccc(NS(=O)(=O)c2cccc3cccnc23)cc1Cl 6.31 µM [inhibitor, partial curve, poor fit]
COc1ccc(/C=C2\CCc3ccccc3C2=O)cc1O 12.6 µM [inhibitor, partial curve, poor fit]
Cn1cccc1-c1nc2ccc(NC(=O)c3ccccc3)cc2[nH]1 11.2 µM [activator, single point]
Fc1ccc(Cn2c(SCc3ccc(F)c(C(F)(F)F)c3)nnc2C(F)(F)F)cc1 11.2 µM [activator, partial curve]
CC(=O)c1c(C(C)=O)c(C)n(-c2nc(-c3ccc(C)c(C)c3)c(C)s2)c1C 35.5 µM [activator, single point]
COc1ccc(C(=O)c2cn[nH]c2-c2cc(Cl)ccc2O)cc1 35.5 µM [inhibitor, single point]
C=CCn1c(-c2ccc3ncccc3c2)n[nH]c1=S 17.8 µM [inhibitor, single point]
CCOC(=O)c1ccc(NC(=O)c2cccc(S(=O)(=O)N3c4ccccc4CC3C)c2)s1 (stereo not drawn) 17.8 µM [activator, partial curve]
CCc1ccc2[nH]c(=O)c(CN(Cc3ccc4c(c3)OCO4)C(=O)c3ccco3)cc2c1 22.4 µM [activator, single point]
CCn1c(SCc2ccccc2)nnc1-c1ccc(S(=O)(=O)N2CCCCC2)cc1 35.5 µM [activator, single point]
COc1ccc(NC(=O)/C=C/c2cccc(F)c2)cn1 0.631 µM [activator, single point]
CCc1ccc2c(-c3cccc(Cl)c3)nc(=O)n(CC)c2n1 28.2 µM [activator, partial curve]
CCNc1nc(NC(C)C)nc(OCC)n1 6.31 µM [inhibitor, single point]
O=C(NCCNc1ccc(Cl)cc1[N+](=O)[O-])c1cccnc1 12.6 µM [activator, partial curve]
Cc1ccc(S(=O)(=O)N2CCN(CC(=O)N/N=C/c3ccc(Br)s3)CC2)cc1 35.5 µM [inhibitor, single point]
COc1ccc(/C=C/C(=O)Nc2cc(C(F)(F)F)ccc2Cl)cc1OC 35.5 µM [activator, single point]

4 records drawn at random from the list so far:
Potency, inconclusive:
O=C(CSc1ccc(F)cc1)Nc1ccc(N2CCOCC2)c(Cl)c1 35.5 µM [activator, single point]
Cc1ccc(S(=O)(=O)N2CCN(CC(=O)N/N=C/c3ccc(Br)s3)CC2)cc1 35.5 µM [inhibitor, single point]
O=C(COC(=O)C1(c2ccccc2F)CCCC1)N1CCN(C(=O)c2ccco2)CC1 11.2 µM [activator, partial curve]
c1ccc(-c2nc(-c3ccco3)n3ccccc23)cc1 35.5 µM [inhibitor, single point]

Next part.

Potency, active:
Oc1ccc(COCc2ccccc2)c2cccnc12 0.562 µM
CCCn1c(SCN2C(=O)c3ccccc3C2=O)nc2cc(Cl)ccc2c1=O 10 µM
CCCn1c(N)c(C(=S)NC(=O)C2CC2)c(=O)n(C)c1=O 3.55 µM
S=c1[nH]nc(C23CC4CC(CC(C4)C2)C3)n1Cc1ccco1 1.26 µM
Cc1cc(-c2n[nH]c(=S)n2/N=C/C(Br)=C/c2ccccc2)n[nH]1 12.6 µM
Clc1ccc2nc(CSc3ccccc3)cn2c1 14.1 µM
O=C(Nc1nnc(-c2ccc(F)cc2)o1)c1cc(Cl)sc1Cl 3.16 µM
Cc1cc2ncn(CCOc3ccccc3)c2cc1C 12.6 µM
O=C1c2ccccc2C(=O)C12OC2c1ccc(Cl)cc1Cl (stereo not drawn) 10 µM
CCn1c2ccc(C)cc2c2nnc(NN)nc21 1.58 µM
CC(C)Nc1cc(C(F)(F)F)nc(-c2ccccn2)n1 1 µM
COc1ccc(NC(=S)NCCc2c[nH]c3ccccc23)cc1 14.1 µM
Cc1ccc(-c2c[nH]c(=S)n2-c2ccccc2)cc1 1.26 µM
Cc1ccn2c(Nc3ccccc3C)c(-c3ccccn3)nc2c1 14.1 µM
O=C(NC(=S)Nc1cc(-c2nc3ccccc3[nH]2)ccc1Cl)c1ccc2c(c1)OCO2 12.6 µM
COc1ccc(NC(=S)NN(C)C(=S)Nc2ccc(OC)cc2)cc1 7.94 µM

Activity change, negative = inhibition, inactive:
O=C(/C=C/c1ccc(O)c(O)c1)c1ccc(O)cc1O -43.4%
N#CC1=C(N)Oc2c(ccc3cccnc23)C1c1cccnc1 (stereo not drawn) 6.78%
COc1ccc(CNc2cccc3[nH]c(C(F)(F)F)nc23)cc1OC 4.29%
Cc1nnc2sc(SCc3ccc(Cl)cc3)nn2c1=O -10.8%
O=C(O)CSc1c2c(nc3cc(C(=O)N4CCCC4)ccc13)CCCC2 -10.1%
CC(CC(=O)Nc1ccc(F)cc1)S(=O)(=O)c1ccc2c(c1)NC(=O)CO2 (stereo not drawn) 5.11%
CCOC(=O)C1CCCN(CC(O)COCc2ccccc2OC)C1 (stereo not drawn) -15.6%
CN(C)c1ccc(C(C(=O)NC2CCCCC2)N(Cc2ccco2)C(=O)c2snc(C(N)=O)c2N)cc1 (stereo not drawn) 22.9%
COc1ccc(OC)c(/C=N/Nc2cc(C)nc(N3CCOCC3)n2)c1 2.65%
Cc1c(Cl)cn2c(=O)cc(CN3CCN(c4ccccc4)CC3)nc2c1Cl 1.98%
Cc1ccc(S(=O)(=O)Nc2cccc(Oc3cnccn3)c2)cc1 28.9%
COc1cc2cc(CN(Cc3nnnn3Cc3ccco3)C3CCCCC3)c(=O)[nH]c2cc1OC -8.18%
Cc1cc(N/N=C/c2ccc(N(C)C)cc2)nc(NCc2ccccc2)n1 -27.9%
O=C(NC1CCCC1)c1cc(-c2ccc(Cl)c(Cl)c2)on1 15%
O=C(CCCCCNC(=O)c1ccccc1)C[N+](=O)[O-] -3.85%
O=C(c1ccco1)N1CCN(C(=O)N2CCOCC2)CC1 -12%
C=CCNc1nc(Nc2ccc(OC)cc2OC)nc(OCC)n1 -15.2%
C/C(=N\NC(=O)c1ccc2c(c1)OCO2)c1ccc(NC(=O)CCCC(=O)O)cc1 -27.8%
Oc1ccc(-c2nc3ccccn3c2NCc2ccco2)cc1 21.4%
CC(C)C(=O)N(c1ccc2oc(=O)sc2c1)S(=O)(=O)c1cccs1 -30.9%
COc1ccccc1N1C(=NC(=O)COc2ccccc2)SC2CS(=O)(=O)CC21 (stereo not drawn) -3.43%
NNC(=O)CS(=O)(=O)c1ccc(Cl)cc1 -11%
CC(C)Sc1nc(NCc2ccco2)c2c3c(sc2n1)COC(C)(C)C3 32%
CCOC(=O)N1CCN(Cc2nnc(-c3ccccc3Cl)o2)CC1 13.1%
O=S(=O)(c1ccc(OC(F)(F)F)cc1)N1CCCC(N2CCOCC2)C1 (stereo not drawn) 1.73%
